Reference: US20190083521A1, “COMBINATION THERAPY FOR TREATING CANCER” (Epizyme, Inc., priority 2014, published 2019)
Counter-ions that a name gives are not always drawn. The name of at least one read-out is uncertain.

test system: MOLM-13 cells; assay: Example 6 combination screen: 300 nM EPZ-5676 pre-treatment, second compound 72 h, ATPLite, IC50 shift; type: cell-based, human; conditions: 300 nM EPZ-5676 pre-treatment (4 + 3 days) vs DMSO, then 2nd compound 72 h, IC50 shift of 2nd compound
Method: Cells were then equilibrated in incubators for 24 hours before treatment with a second compound. Treated assay plates were incubated with a second compound for 72 hours. After this time, plates were developed for endpoint analysis using ATPLite to measure ATP content, which is used as an indicator of cell viability.
“N/D” means that IC50 of the second compound could not be determined for both conditions.

SMILES	Summary of Combination Studies: MOLM-13
COc1cc2nc(N3CCCN(C)CC3)nc(NC3CCN(Cc4ccccc4)CC3)c2cc1OC [BIX01294]	Synergy (considered synergistic if the IC50 value of the second compound decreased by 2-fold or more when EPZ-5676 was added as compared to the DMSO control)
Cn1cncc1[C@@](N)(c1ccc(Cl)cc1)c1ccc2c(c1)c(-c1cccc(Cl)c1)cc(=O)n2C [Tipifarnib]	Synergy (considered synergistic if the IC50 value of the second compound decreased by 2-fold or more when EPZ-5676 was added as compared to the DMSO control)
Cc1cc(/N=N/c2ccc(S(=O)(=O)Nc3ccccn3)cc2)c(N)cc1O [MS 436]	Synergy (considered synergistic if the IC50 value of the second compound decreased by 2-fold or more when EPZ-5676 was added as compared to the DMSO control)
CO[C@H]1C[C@@H]2CC[C@@H](C)[C@@](O)(O2)C(=O)C(=O)N2CCCC[C@H]2C(=O)O[C@H]([C@H](C)C[C@@H]2CC[C@@H](OC(=O)C(C)(CO)CO)[C@H](OC)C2)CC(=O)[C@H](C)/C=C(\C)[C@@H](O)[C@@H](OC)C(=O)[C@H](C)C[C@H](C)/C=C/C=C/C=C/1C [Temsirolimus]	Synergy (considered synergistic if the IC50 value of the second compound decreased by 2-fold or more when EPZ-5676 was added as compared to the DMSO control)
Cc1ccc2nc(NCCN)c3ncc(C)n3c2c1 [BMS 345541]	Synergy (considered synergistic if the IC50 value of the second compound decreased by 2-fold or more when EPZ-5676 was added as compared to the DMSO control)
CC1=C(/C=C/C(C)=C/C=C/C(C)=C/C(=O)O)C(C)(C)CCC1 [Tretinoin]	Synergy (considered synergistic if the IC50 value of the second compound decreased by 2-fold or more when EPZ-5676 was added as compared to the DMSO control)
CC(C)(C)c1nc(-c2cccc(NS(=O)(=O)c3c(F)cccc3F)c2F)c(-c2ccnc(N)n2)s1 [Dabrafenib]	Synergy (considered synergistic if the IC50 value of the second compound decreased by 2-fold or more when EPZ-5676 was added as compared to the DMSO control)
Cn1c2ccccc2c2c3c(c4c5ccccc5n(CCC#N)c4c21)CNC3=O [Go 6976]	Synergy (considered synergistic if the IC50 value of the second compound decreased by 2-fold or more when EPZ-5676 was added as compared to the DMSO control)
COc1ccc(Cl)c(Nc2nc3ccccc3nc2NS(=O)(=O)c2cccc(NC(=O)C(C)(C)N)c2)c1 [XL147]	Synergy (considered synergistic if the IC50 value of the second compound decreased by 2-fold or more when EPZ-5676 was added as compared to the DMSO control)
O=C(c1cc(Cc2n[nH]c(=O)c3ccccc23)ccc1F)N1CCN(C(=O)C2CC2)CC1 [Olaparib]	Synergy (considered synergistic if the IC50 value of the second compound decreased by 2-fold or more when EPZ-5676 was added as compared to the DMSO control)
CC[C@H](Nc1ncnc2[nH]cnc12)c1nc2cccc(F)c2c(=O)n1-c1ccccc1 [CAL-101]	Synergy (considered synergistic if the IC50 value of the second compound decreased by 2-fold or more when EPZ-5676 was added as compared to the DMSO control)
Cc1sc2c(c1C)C(c1ccc(Cl)cc1)=N[C@@H](CC(=O)Nc1ccc(O)cc1)c1nnc(C)n1-2 [OTX015]	Synergy (considered synergistic if the IC50 value of the second compound decreased by 2-fold or more when EPZ-5676 was added as compared to the DMSO control)
Cc1coc2c1C(=O)C(=O)c1c-2ccc2c1CCCC2(C)C [TANSHINONE IIA]	Synergy (considered synergistic if the IC50 value of the second compound decreased by 2-fold or more when EPZ-5676 was added as compared to the DMSO control)
O=C(c1ccc(OCCN2CCCCC2)cc1)c1c(-c2ccc(O)cc2)sc2cc(O)ccc12 [Raloxifene Hydrochloride]	Synergy (considered synergistic if the IC50 value of the second compound decreased by 2-fold or more when EPZ-5676 was added as compared to the DMSO control)
